According to publication PMC8241731:
Results are given in words; binding and its absence hold for the method and conditions named. In cells and extracts the contact can be indirect. Some entries that bind do so weakly or less than the wild type.

T1: Rac GTPase activating protein 1 (human (endogenous in NOZ and GBC-SD)) (UniProt Q9H0H5)
T1 sequence: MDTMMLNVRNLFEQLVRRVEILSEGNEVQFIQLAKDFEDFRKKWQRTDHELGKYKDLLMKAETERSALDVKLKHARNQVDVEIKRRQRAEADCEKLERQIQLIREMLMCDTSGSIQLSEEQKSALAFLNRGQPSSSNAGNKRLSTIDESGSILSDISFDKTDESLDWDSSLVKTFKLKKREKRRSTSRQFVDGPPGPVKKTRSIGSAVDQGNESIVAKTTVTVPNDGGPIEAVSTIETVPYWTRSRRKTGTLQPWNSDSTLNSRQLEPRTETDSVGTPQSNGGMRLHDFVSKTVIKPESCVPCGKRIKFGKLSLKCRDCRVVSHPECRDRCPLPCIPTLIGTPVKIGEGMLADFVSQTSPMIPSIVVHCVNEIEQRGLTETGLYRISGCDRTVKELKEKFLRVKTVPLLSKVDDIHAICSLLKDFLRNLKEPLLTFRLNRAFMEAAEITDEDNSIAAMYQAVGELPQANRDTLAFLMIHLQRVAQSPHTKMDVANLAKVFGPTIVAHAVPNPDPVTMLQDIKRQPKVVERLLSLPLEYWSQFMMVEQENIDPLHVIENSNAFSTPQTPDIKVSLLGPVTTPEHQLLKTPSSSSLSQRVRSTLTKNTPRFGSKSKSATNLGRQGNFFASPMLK

T2: DNA ligase 3 (human (endogenous in NOZ and GBC-SD)) (UniProt P49916)
T2 sequence: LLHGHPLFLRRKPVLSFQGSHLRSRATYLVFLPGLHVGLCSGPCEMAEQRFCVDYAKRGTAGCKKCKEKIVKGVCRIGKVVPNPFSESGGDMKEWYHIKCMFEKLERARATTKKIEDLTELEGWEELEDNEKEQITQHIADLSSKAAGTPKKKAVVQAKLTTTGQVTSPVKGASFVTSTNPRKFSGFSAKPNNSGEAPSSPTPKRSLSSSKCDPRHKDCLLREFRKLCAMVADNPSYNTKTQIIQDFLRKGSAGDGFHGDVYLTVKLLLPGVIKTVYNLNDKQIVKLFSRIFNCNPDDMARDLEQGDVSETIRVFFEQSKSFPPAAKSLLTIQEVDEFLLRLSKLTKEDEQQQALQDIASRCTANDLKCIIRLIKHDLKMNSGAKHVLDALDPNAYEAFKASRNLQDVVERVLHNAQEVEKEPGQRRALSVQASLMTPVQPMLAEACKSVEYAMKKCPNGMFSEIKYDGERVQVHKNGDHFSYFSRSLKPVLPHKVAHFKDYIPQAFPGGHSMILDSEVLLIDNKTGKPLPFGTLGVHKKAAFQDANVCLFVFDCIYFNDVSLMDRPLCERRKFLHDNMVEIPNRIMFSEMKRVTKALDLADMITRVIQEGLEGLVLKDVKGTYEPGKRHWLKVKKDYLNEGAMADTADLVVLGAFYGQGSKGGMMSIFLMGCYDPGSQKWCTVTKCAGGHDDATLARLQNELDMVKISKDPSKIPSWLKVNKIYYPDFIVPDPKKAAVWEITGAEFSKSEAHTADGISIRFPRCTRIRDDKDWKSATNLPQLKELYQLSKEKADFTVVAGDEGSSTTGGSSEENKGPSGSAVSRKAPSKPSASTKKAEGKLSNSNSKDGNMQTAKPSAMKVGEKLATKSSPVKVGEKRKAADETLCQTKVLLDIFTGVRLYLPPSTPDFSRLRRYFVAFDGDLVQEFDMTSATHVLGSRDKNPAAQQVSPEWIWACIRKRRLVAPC

B1: DNA ligase 3 (protein, UniProt P49916 43-1009)
chain: T2 sequence
B2: Rac GTPase activating protein 1 (protein, UniProt Q9H0H5 1-632)
chain: T1 sequence

Columns and labels:
[1] = target: T1, Rac GTPase activating protein 1 (human (endogenous in NOZ and GBC-SD)); assay: co-IP; endogenous co-IP; protein G magnetic beads with anti-RACGAP1 or anti-LIG3 antibody (4 h), then NOZ and GBC-SD cell lysates overnight at 4 °C; western blotting
[2] = target: T2, DNA ligase 3 (human (endogenous in NOZ and GBC-SD)); assay: as above

Binder	binding [1]	binding [2]
B1	binds	–
B2	–	binds
